Assay results reported in PMC9117723.
No constants are given. Whether binding was seen depends on the method and setting. Binding seen in cells or lysates may run through a third protein. Some results given as binding are weak or reduced against the parent protein; the word gives no strength.

Chains of the proteins cited; added tags and fusions are not shown.
UniProt Q9JKF1: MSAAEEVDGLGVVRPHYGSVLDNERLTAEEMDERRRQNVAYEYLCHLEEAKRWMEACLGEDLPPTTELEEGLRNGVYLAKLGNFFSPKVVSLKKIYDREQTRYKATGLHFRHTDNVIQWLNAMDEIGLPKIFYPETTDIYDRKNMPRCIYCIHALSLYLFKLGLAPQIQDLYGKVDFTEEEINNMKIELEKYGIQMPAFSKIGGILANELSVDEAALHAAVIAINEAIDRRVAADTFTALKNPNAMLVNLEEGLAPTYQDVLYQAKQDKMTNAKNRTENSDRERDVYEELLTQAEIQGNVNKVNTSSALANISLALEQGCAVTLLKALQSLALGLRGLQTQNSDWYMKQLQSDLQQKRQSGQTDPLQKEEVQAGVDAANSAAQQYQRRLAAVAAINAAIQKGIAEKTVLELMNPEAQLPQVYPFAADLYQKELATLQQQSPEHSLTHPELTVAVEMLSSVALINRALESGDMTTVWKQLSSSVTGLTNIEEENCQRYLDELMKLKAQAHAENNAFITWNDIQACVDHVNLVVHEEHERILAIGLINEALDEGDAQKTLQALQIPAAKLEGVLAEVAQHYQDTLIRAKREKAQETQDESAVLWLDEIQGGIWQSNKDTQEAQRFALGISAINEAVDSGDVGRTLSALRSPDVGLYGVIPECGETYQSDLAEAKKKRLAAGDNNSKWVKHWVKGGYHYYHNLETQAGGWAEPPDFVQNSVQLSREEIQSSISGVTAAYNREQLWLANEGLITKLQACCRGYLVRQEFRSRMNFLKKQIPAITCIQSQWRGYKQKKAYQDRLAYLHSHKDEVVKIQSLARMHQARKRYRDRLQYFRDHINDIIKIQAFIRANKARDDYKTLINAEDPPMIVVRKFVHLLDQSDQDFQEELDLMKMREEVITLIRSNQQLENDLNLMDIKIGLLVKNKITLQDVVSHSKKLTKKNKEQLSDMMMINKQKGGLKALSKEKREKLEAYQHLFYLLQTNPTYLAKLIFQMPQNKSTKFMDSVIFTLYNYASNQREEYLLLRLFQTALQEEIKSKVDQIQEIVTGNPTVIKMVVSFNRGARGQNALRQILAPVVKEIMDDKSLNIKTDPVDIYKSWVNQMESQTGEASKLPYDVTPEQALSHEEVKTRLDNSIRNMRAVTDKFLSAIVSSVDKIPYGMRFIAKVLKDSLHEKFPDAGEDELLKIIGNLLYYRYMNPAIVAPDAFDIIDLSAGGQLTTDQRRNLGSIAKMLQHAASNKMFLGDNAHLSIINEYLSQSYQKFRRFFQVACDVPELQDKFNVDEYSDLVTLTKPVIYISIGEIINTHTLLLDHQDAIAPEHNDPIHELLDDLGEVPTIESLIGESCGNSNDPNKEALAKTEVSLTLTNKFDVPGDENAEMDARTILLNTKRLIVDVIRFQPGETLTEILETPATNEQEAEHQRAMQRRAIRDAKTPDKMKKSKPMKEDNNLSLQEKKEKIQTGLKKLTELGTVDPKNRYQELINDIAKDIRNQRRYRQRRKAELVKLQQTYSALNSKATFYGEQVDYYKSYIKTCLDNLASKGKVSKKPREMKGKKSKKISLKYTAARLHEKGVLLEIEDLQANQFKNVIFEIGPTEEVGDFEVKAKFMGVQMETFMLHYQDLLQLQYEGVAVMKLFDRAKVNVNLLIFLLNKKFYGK

Target: IQGAP1, endogenous in mouse kidney (mouse (endogenous in kidney)) (UniProt Q9JKF1)
Assay: co-IP; kidney lysates of wild-type and pendrin knockout mice in PBS-T on anti-IQGAP1 antibody on Dynabead Protein-G, room temperature; western blot with anti-SLC26A4 antibody

binding: binds
B1: SLC26A4 (pendrin), endogenous in mouse kidney (protein, UniProt Q9R155 1-780)
chain: MAARGGRSEPPQLAEYSCSYTVSRPVYSELAFQQQRERRLPERRTLRDSLARSCSCSRKRAFGVVKTLLPILDWLPKYRVKEWLLSDIISGVSTGLVGTLQGMAYALLAAVPVQFGLYSAFFPILTYFVFGTSRHISVGPFPVVSLMVGSVVLSMAPDDHFLVPSGNGSALNSTTLDTGTRDAARVLLASTLTLLVGIIQLVFGGLQIGFIVRYLADPLVGGFTTAAAFQVLVSQLKIVLNVSTKNYNGILSIIYTLIEIFQNIGDTNIADFIAGLLTIIVCMAVKELNDRFKHRIPVPIPIEVIVTIIATAISYGANLEKNYNAGIVKSIPSGFLPPVLPSVGLFSDMLAASFSIAVVAYAIAVSVGKVYATKHDYVIDGNQEFIAFGISNVFSGFFSCFVATTALSRTAVQESTGGKTQVAGLISAVIVMVAIVALGRLLEPLQKSVLAAVVIANLKGMFMQVCDVPRLWKQNKTDAVIWVFTCIMSIILGLDLGLLAGLLFALLTVVLRVQFPSWNGLGSVPSTDIYKSITHYKNLEEPEGVKILRFSSPIFYGNVDGFKKCINSTVGFDAIRVYNKRLKALRRIQKLIKKGQLRATKNGIISDIGSSNNAFEPDEDVEEPEELNIPTKEIEIQVDWNSELPVKVNVPKVPIHSLVLDCGAVSFLDVVGVRSLRMIVKEFQRIDVNVYFALLQDDVLEKMEQCGFFDDNIRKDRFFLTVHDAILHLQNQVKSREGQDSLLETVARIRDCKDPLDLMEAEMNAEELDVQDEAMRRLAS
